Data source: PubChem BioAssay AID1259405 (NCATS, 2018)

Aim: 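Mouse-designed siRNAs used to find CHO productivity engineering targets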 (primary screen)
Cell system: Chinese hamster CHO-K1 ovary cells with stable secreted eGFP expression
Reagent: single siRNA against mouse genes, 0.8 pmol siRNA per well (2 µl of 400 nM stock)
Duration: 3 days
Detection: 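Per-well intracellular GFP measured by laser scanning cytometry, plus viability from ATP luminescence, each relative to plate median of non-targeting control wells, in %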
Direction: GFP, % of control: higher = more GFP per well, higher productivity; viability (ATP), % of control: higher = more viable cells (more ATP)
Hit rule: 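a knock-down is called active if GFP reaches 120% or more of non-targeting control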
Shown is a random part of about 50,000 deposited reagents. In the full data, about 4,000 (8%) got an active call. 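Mouse siRNA library applied to hamster cells; one well for each siRNA.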 Entries without a mark were called inactive. Reagents against one gene are numbered here. No sequences are given here.

Gene,reagent no.,"GFP, % of control","viability (ATP), % of control"
Dusp14 (GeneID 56405),1,79.2,92.4
Dusp14 (GeneID 56405),2,82.2,78
Tmem184a (GeneID 231832),1,110,98.7
Tmem184a (GeneID 231832),2,35.9,40.8
Tmem184a (GeneID 231832),3,70.5,63.2
Hdac11 (GeneID 232232),1,79.5,78.5
Hdac11 (GeneID 232232),2,81.2,54.3
Igf2bp2 (GeneID 319765),1,56.6,61
Igf2bp2 (GeneID 319765),2,49,61
Igf2bp2 (GeneID 319765),3,74.3,64.2
Slc35f4 (GeneID 75288),1,159 (active),73.5
Slc35f4 (GeneID 75288),2,87.5,77.6
Slc35f4 (GeneID 75288),3,63.7,53.2
A430090L17Rik (GeneID 319803),1,96.1,79.2
A430090L17Rik (GeneID 319803),2,74.1,82.5
A430090L17Rik (GeneID 319803),3,82.2,77.9
Kcnj9 (GeneID 16524),1,82,97.7
Kcnj9 (GeneID 16524),2,61.9,83.3
Kcnj9 (GeneID 16524),3,48,67.2
Or2v2 (GeneID 258334),1,38.1,48.7
Or2v2 (GeneID 258334),2,83,73.5
Or2v2 (GeneID 258334),3,71.8,101
Styk1 (GeneID 243659),1,86.6,70.3
Gtf3c5 (GeneID 70239),1,60.5,78
Gtf3c5 (GeneID 70239),2,76.8,88
Gtf3c5 (GeneID 70239),3,81.2,40.4
Nfkb2 (GeneID 18034),1,104,112
Nfkb2 (GeneID 18034),2,63,64.4
Nfkb2 (GeneID 18034),3,104,118
Cast (GeneID 12380),1,75.1,52.9
Cast (GeneID 12380),2,99.7,66.1
Cast (GeneID 12380),3,96,92
Bcl11a (GeneID 14025),1,54.5,62.8
Bcl11a (GeneID 14025),2,94.5,77.6
Bcl11a (GeneID 14025),3,68,99
Or13c25 (GeneID 258836),1,78.2,67.6
Or13c25 (GeneID 258836),2,113,103
Or13c25 (GeneID 258836),3,25.7,12.5
Tmem202 (GeneID 73893),1,99.6,93.1
Tmem202 (GeneID 73893),2,80.3,79.1
Tmem202 (GeneID 73893),3,62.5,94.9
Prl6a1 (GeneID 19111),1,100,84.6
Prl6a1 (GeneID 19111),2,83.7,71.8
Prl6a1 (GeneID 19111),3,85.4,54.9

Part of the list above, reduced to “viability (ATP), % of control”:
Nfkb2 (GeneID 18034) #1	112
Nfkb2 (GeneID 18034) #2	64.4
Nfkb2 (GeneID 18034) #3	118
Cast (GeneID 12380) #1	52.9
Cast (GeneID 12380) #2	66.1
Cast (GeneID 12380) #3	92
Bcl11a (GeneID 14025) #1	62.8
Bcl11a (GeneID 14025) #2	77.6
Bcl11a (GeneID 14025) #3	99
Or13c25 (GeneID 258836) #1	67.6
Or13c25 (GeneID 258836) #2	103
Or13c25 (GeneID 258836) #3	12.5
Tmem202 (GeneID 73893) #1	93.1
Tmem202 (GeneID 73893) #2	79.1

The results go on.
Gene,reagent no.,"GFP, % of control","viability (ATP), % of control"
St3gal5 (GeneID 20454),1,98.8,89.5
St3gal5 (GeneID 20454),2,88.1,139
St3gal5 (GeneID 20454),3,81.5,92.7
Mgat4d (GeneID 67555),1,120 (active),75.4
Mgat4d (GeneID 67555),2,71,67.2
Mgat4d (GeneID 67555),3,35.9,26.7
Trp53rka (GeneID 381406),1,63.5,77.1
Trp53rka (GeneID 381406),2,146 (active),91
Trp53rka (GeneID 381406),3,43.6,51.6
Med7 (GeneID 66213),1,46.8,64.1
Med7 (GeneID 66213),2,64.2,66.4
Med7 (GeneID 66213),3,94.4,129
Tspoap1 (GeneID 207777),1,59.6,40.7
Tspoap1 (GeneID 207777),2,78.5,89.2
Tspoap1 (GeneID 207777),3,118,102
Mgl2 (GeneID 216864),1,68.5,76.6
Mgl2 (GeneID 216864),2,92.6,86.3
Mgl2 (GeneID 216864),3,39.7,47.5
Tars2 (GeneID 71807),1,70.8,52.1
Tars2 (GeneID 71807),2,88.3,94.4
Tars2 (GeneID 71807),3,99.1,94.6
Serpinb11 (GeneID 66957),1,58.4,85.9
Serpinb11 (GeneID 66957),2,42.7,54.1
Serpinb11 (GeneID 66957),3,148 (active),84.1
Meis1 (GeneID 17268),1,55,68.1
Meis1 (GeneID 17268),2,82.8,85.8
Meis1 (GeneID 17268),3,53.7,79.1
4931406H21Rik (GeneID 77592),1,16.5,29.3
4931406H21Rik (GeneID 77592),2,89.7,60.1
4931406H21Rik (GeneID 77592),3,114,63.7
Or4p18 (GeneID 258919),1,68.3,78.2
Or4p18 (GeneID 258919),2,79.2,83
Or4p18 (GeneID 258919),3,48.8,67.6
Alkbh7 (GeneID 66400),1,87.1,99.9
Alkbh7 (GeneID 66400),2,105,75.2
Alkbh7 (GeneID 66400),3,77.1,90.1
Pcdhb1 (GeneID 93872),1,58.6,65.6
Pcdhb1 (GeneID 93872),2,87.4,72
Naa20 (GeneID 67877),1,76.1,82.5
Naa20 (GeneID 67877),2,34.3,67.8
Naa20 (GeneID 67877),3,92.7,104
